Reference: article PMC3035606, “Structural Basis of Response Regulator Dephosphorylation by Rap Phosphatases” (PLoS Biology, 2011)
No constants are given. Whether binding was seen depends on the method and setting.

Columns and labels:
[1] = biological target: Spo0F (B. subtilis) (UniProt P06628); assay: SEC; gel filtration on Superdex 200 16/70 in buffer E (20 mM Tris-HCl (pH 8.0), 50 mM KCl, 5 mM MgCl2), 4°C; both purified
[2] = biological target: selenomethionyl Spo0F-D54E (B. subtilis) (UniProt P06628); assay: as above

| binding [1] | binding [2] | Binder |
| --- | --- | --- |
| no binding | – | Spo0F (natural protein, B. subtilis, two heterologous N-terminal residues (Gly-Ser) derived from the thrombin cleavage signal; Spo0F, B. subtilis strain 168, residues 1-124; The methods name the vector pETDuet-1 but purify over glutathione resin and remove a GST tag; also called Spo0FA; Spo0FB; source: E. coli BL21(DE3), purified (glutathione resin, thrombin, Source 15Q and HiTrap Heparin flow-through, Superdex 200); …) GSMMNEKILIVDDQYGIRILLNEVFNKEGYQTFQAANGLQALDIVTKERPDLVLLDMKIPGMDGIEILKRMKVIDENIRVIIMTAYGELDMIQESKELGALTHFAKPFDIDEIRDAVKKYLPLKSN |
| – | no binding | selenomethionyl Spo0F-D54E (natural protein, B. subtilis, selenomethionyl (selenomethionine derivatized), two heterologous N-terminal residues (Gly-Ser) derived from the thrombin cleavage signal; purified in an identical manner to Spo0F; Spo0F, B. subtilis strain 168, residues 1-124, with D54E; Used for SAD phasing; PDB 3Q15 holds the parent (wild-type Spo0F); source: E. coli BL21(DE3), purified as Spo0F (buffer D with 120 mM MgCl2); not shown: GST, N-terminal, cleaved) GSMMNEKILIVDDQYGIRILLNEVFNKEGYQTFQAANGLQALDIVTKERPDLVLLEMKIPGMDGIEILKRMKVIDENIRVIIMTAYGELDMIQESKELGALTHFAKPFDIDEIRDAVKKYLPLKSN |
